Reference: the supplement of paper PMC12823440, “Inhibitors supercharge kinase turnover through native proteolytic circuits” (Nature, 2025)
Structures can show the parent of a compound that is named as a salt. The list shows a part of the results. The calls rarely recur for the same compound in another form.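 Kinases were expressed as nanoluciferase fusions in K562 cells and luminescence was read every 4 h between 2 and 18 h as percent of control, DMSO set to 100% and a positive control to 0%. A time point counts as decreased when the signal drops significantly (2 sigma). The hit call is the authors' own, does not follow from the count of time points alone, and its rule is not shown.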

Sequences of proteins named here, by UniProt entry; tags and fusion partners are left off. A change or cut given only in a name is not applied to a line headed by its entry.
UniProt O14965: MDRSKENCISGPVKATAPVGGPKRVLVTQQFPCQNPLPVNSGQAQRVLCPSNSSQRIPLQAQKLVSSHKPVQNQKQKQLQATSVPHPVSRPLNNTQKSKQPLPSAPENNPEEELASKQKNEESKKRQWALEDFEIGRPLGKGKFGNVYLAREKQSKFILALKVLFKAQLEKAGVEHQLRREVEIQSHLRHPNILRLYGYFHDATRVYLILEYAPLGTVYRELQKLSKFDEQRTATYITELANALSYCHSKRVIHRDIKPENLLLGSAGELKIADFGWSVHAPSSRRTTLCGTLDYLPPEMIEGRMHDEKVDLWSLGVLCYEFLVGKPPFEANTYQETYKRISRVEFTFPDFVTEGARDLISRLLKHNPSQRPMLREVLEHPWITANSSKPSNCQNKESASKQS
UniProt Q96GD4, whole entry: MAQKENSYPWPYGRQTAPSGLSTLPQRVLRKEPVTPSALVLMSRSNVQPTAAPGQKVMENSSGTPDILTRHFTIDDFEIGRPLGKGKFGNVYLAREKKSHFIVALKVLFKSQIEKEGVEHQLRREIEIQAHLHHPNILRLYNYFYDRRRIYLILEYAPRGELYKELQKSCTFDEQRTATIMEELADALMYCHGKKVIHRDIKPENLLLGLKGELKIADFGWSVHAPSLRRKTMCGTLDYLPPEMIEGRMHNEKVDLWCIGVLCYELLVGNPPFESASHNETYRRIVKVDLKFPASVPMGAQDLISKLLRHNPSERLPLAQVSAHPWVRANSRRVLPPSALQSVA

molecular target: AURKA (UniProt O14965); experiment: kinase-Nluc reporter destabilization hit call (1 = scored as downregulated) (binary); higher = compound decreases kinase abundance; details: K562; 2-18 h

kinase-Nluc reporter destabilization hit call, inactive:
Cn1c(=O)c2c(nc(S(C)(=O)=O)n2C)n(CC#Cc2cccc(O)c2)c1=O (2.5 µM) 0
Cc1ccc(C)c(OCCn2cc(C(=O)O)c3ccccc32)c1 (10 µM) 0
C=CC(=O)Nc1ccc(C(=O)Nc2[nH]nc3c2CN(C(=O)N[C@H](CN(C)C)c2ccccc2)C3(C)C)cc1 (10 µM) 0
Nc1ncnc2c1nc(Br)n2[C@@H]1O[C@@H]2COP(=O)(O)O[C@H]2[C@H]1O [8-Bromo-cAMP sodium salt] (10 µM) 0
O=c1[nH]ccc2nc(-c3ccc(CN4CCC(c5nc(-c6ccccn6)n[nH]5)CC4)cc3)c(-c3ccccc3)cc12 (10 µM) 0
COc1ccc(Nc2ncc(C(F)(F)F)c(NC3CC3)n2)cc1OC (10 µM) 0
O=C1NC(=O)/C(=C\c2c[nH]c(=O)c(-c3ccc(N4CCNCC4)nc3)c2)S1 [Protein kinase inhibitors 1 hydrochloride] (10 µM) 0
CCN(CC)CCCC(C)Nc1nc(C)cc(Nc2ccc3nc(C)cc(N)c3c2)n1 (stereo unspecified) (10 µM) 0

molecular target: AURKB (UniProt Q96GD4); experiment: as above; details: K562; 2-18 h

kinase-Nluc reporter destabilization hit call, inactive:
CC(C)CCN1c2nc(Nc3cc(F)c(O)c(F)c3)ncc2N(C)C(=O)C1C (stereo unspecified) (2.5 µM) 0
CC(C)=CC[C@@H](O)C1=CC(=O)c2c(O)ccc(O)c2C1=O [Shikonin] (10 µM) 0
CCC(=O)Nc1cccc(Oc2nc(Nc3ccc(N4CCN(C)CC4)cc3OC)ncc2Cl)c1 (10 µM) 0
CC(C)=CCC/C(C)=C/CC/C(C)=C/C=C/C(C)=C/C(=O)O [Peretinoin] (10 µM) 0
COc1ccc2c(Oc3ccc4c(C(=O)Nc5ccccc5N)cccc4c3)ccnc2c1 [Chiauranib] (10 µM) 0
Cc1nn(C)cc1-c1nc2c(N3CCN(Cc4ccc(Cl)cc4)CC3)c(Cl)cnc2[nH]1 (10 µM) 0
CNC(=O)c1cc2c(Oc3ccc(NC(=O)C4(C(=O)Nc5ccc(F)cc5)CC4)cc3)ccnc2cc1OC (2.5 µM) 0
O=C(Nc1cccnc1)c1cc(-c2ccnc(F)c2)ccc1OCc1ccccc1 (10 µM) 0
CN(C)c1ccc(-c2nc3ncc(Cl)c(N4CCN(CC(=O)Nc5nccs5)CC4)c3[nH]2)cc1 (2 µM) 0
Cc1cc(C(=O)NC(C)(C)C)cc(C#Cc2ccc3c4c(oc3c2)C(C)(C)c2cc(NS(C)(=O)=O)ccc2C4=O)n1 (10 µM) 0
O=C(O)c1cc(N(Cc2ccccc2O)Cc2cc(O)ccc2O)ccc1O [Lavendustin A] (10 µM) 0
C[C@@H](Nc1ncnc2[nH]c(-c3ccc(O)cc3)cc12)c1ccccc1 (2.5 µM) 0
O=C(O)c1ccc(/C=C/S(=O)(=O)Cc2ccc(Cl)cc2)cc1 [Recilisib] (10 µM) 0
Nc1nc(NCCNc2ncc(-n3ccnc3)c(-c3ccc(Cl)cc3Cl)n2)ccc1[N+](=O)[O-] (2.5 µM) 0
Cc1cnc(NC(=O)c2cc(Oc3cnc(C(=O)N(C)C)nc3)c3cc(C)oc3c2)cn1 (10 µM) 0
CNC(=O)CNc1cnc2ccc(-c3ccc(OC)c(OC)c3)cc2n1 (10 µM) 0
N[C@@H]1CCCN(c2c(/C=C3\SC(=O)NC3=O)cccc2-c2ccccc2)C1 (10 µM) 0
CO[C@H]1C[C@@H]2CC[C@@H](C)[C@@](O)(O2)C(=O)C(=O)N2CCCC[C@H]2C(=O)O[C@H]([C@H](C)C[C@@H]2CC[C@@H](OC(=O)C(C)(CO)CO)[C@H](OC)C2)CC(=O)[C@H](C)/C=C(\C)[C@@H](O)[C@@H](OC)C(=O)[C@H](C)C[C@H](C)/C=C/C=C/C=C/1C [Temsirolimus] (2.5 µM) 0
COc1cc2nccc(Oc3ccc(NC(=O)c4cn(C(C)C)c(=O)n(-c5ccc(F)cc5)c4=O)cc3F)c2cc1OC (0.5 µM) 0
C=C1CCC[C@]2(C)C=C3OC(=O)C(C)=C3C[C@@H]12 [Atractylenolide I] (10 µM) 0
C=CC(=O)Nc1cc(Nc2nccc(-c3cn(C)c4ccccc34)n2)c(OC)cc1OCCN(C)C [Rezivertinib] (2.5 µM) 0
C=C1C(=O)[C@@]23[C@H](O)C[C@@H]4C(C)(C)C(=O)CC[C@@]4(C)[C@@H]2CC[C@@H]1[C@H]3O [Glaucocalyxin A] (2.5 µM) 0
NC1(C(=O)NCCCn2cc(-c3ccc(OC(F)(F)F)cc3)c3cc(CN4CCN(Cc5c(Cl)cccc5Cl)CC4)ccc32)CCNCC1 (2.5 µM) 0
CC(Sc1nc2c(cnn2-c2cccc(Cl)c2)c(=O)[nH]1)C(N)=O (stereo unspecified) (10 µM) 0
Fc1ccc2[nH]ccc2c1-c1nc(N2CCOCC2)c2sc(CN3CCN(CC4CC4)CC3)cc2n1 (10 µM) 0
Cn1cc(-c2cc(Oc3cc(F)c(NC(=O)C4(C(=O)Nc5ccccc5)CC4)cc3F)ccn2)cn1 (2.5 µM) 0
COc1ccc(S(=O)(=O)Nc2cc(-c3c(O)ccc4ccccc34)c(O)c3ccccc23)cc1 (10 µM) 0
Cn1c2cc([S+](C)[O-])sc2c2cnn(Cc3cccc(N)c3)c(=O)c21 (stereo unspecified) (2.5 µM) 0
O=C(NCCO)c1cc(C(=O)NCCO)cc(C(=O)NCCO)c1 (10 µM) 0
N#Cc1cnc2c(Cl)cc(NCc3cn(CCN4CCCCCC4)nn3)cc2c1Nc1ccc(F)c(Cl)c1 [Cot inhibitor-1] (10 µM) 0
Cn1c(=O)c2c(nc(S(C)(=O)=O)n2C)n(CC#Cc2cccc(O)c2)c1=O (2.5 µM) 0
Cc1ccc(C)c(OCCn2cc(C(=O)O)c3ccccc32)c1 (10 µM) 0
C=CC(=O)Nc1ccc(C(=O)Nc2[nH]nc3c2CN(C(=O)N[C@H](CN(C)C)c2ccccc2)C3(C)C)cc1 (10 µM) 0
Nc1ncnc2c1nc(Br)n2[C@@H]1O[C@@H]2COP(=O)(O)O[C@H]2[C@H]1O [8-Bromo-cAMP sodium salt] (10 µM) 0
O=c1[nH]ccc2nc(-c3ccc(CN4CCC(c5nc(-c6ccccn6)n[nH]5)CC4)cc3)c(-c3ccccc3)cc12 (10 µM) 0
COc1ccc(Nc2ncc(C(F)(F)F)c(NC3CC3)n2)cc1OC (10 µM) 0
O=C1NC(=O)/C(=C\c2c[nH]c(=O)c(-c3ccc(N4CCNCC4)nc3)c2)S1 [Protein kinase inhibitors 1 hydrochloride] (10 µM) 0
CCN(CC)CCCC(C)Nc1nc(C)cc(Nc2ccc3nc(C)cc(N)c3c2)n1 (stereo unspecified) (10 µM) 0
